Data: publication PMC5636799
No constants are given. Whether binding was seen depends on the method and setting. Binding seen in cells or lysates may run through a third protein. Some results given as binding are weak or reduced against the parent protein; the word gives no strength.

Chains of the proteins cited; added tags and fusions are not shown.
UniProt P25963: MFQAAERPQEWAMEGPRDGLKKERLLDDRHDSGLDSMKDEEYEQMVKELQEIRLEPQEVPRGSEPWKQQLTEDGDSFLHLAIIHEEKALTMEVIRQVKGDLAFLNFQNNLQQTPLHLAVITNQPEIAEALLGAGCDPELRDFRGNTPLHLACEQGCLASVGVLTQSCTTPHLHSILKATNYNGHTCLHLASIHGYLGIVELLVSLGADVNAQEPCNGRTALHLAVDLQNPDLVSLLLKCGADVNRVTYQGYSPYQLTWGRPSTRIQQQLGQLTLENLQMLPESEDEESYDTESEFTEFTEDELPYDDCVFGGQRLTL

Biological target: T1, IKKβ (human (endogenous in HUVECs)) (UniProt O14920)
T1 sequence: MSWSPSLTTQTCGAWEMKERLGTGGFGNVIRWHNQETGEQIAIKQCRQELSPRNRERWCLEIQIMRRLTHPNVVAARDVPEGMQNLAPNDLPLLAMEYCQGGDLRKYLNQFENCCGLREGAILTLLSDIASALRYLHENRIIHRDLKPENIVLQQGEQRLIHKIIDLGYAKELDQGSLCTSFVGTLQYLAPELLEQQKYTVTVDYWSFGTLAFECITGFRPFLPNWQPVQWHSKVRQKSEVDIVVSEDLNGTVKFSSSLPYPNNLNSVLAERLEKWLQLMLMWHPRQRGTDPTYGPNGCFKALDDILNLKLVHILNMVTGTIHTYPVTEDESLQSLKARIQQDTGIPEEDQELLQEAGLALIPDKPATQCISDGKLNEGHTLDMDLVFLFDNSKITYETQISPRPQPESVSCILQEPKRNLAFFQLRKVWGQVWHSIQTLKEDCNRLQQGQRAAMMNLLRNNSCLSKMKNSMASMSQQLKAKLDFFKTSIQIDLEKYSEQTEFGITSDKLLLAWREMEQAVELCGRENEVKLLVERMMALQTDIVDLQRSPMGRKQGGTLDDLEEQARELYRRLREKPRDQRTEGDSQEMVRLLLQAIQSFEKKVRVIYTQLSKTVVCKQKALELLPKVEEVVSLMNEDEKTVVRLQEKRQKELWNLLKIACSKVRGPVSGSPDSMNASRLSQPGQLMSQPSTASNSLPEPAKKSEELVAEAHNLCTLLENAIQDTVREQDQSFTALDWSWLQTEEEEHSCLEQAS
Assay: co-IP; HUVEC cell extract precipitated with anti-IKKβ antibody (2 μg, 2 h, 4 °C) and protein A/G plus-agarose overnight, washed thrice with ice-cold RIPA buffer, Western blot; cells treated with TNF-α (10 ng/mL) for 1 h

binding: binds
Substance: IκBα (from UniProt P25963 1-317)
